This is an account of results in patent US20240376194A1.

Amino acid sequences for entries named in this document (tags omitted). Residues count along the entry.
UniProt Q9NYJ7, residues 27-492: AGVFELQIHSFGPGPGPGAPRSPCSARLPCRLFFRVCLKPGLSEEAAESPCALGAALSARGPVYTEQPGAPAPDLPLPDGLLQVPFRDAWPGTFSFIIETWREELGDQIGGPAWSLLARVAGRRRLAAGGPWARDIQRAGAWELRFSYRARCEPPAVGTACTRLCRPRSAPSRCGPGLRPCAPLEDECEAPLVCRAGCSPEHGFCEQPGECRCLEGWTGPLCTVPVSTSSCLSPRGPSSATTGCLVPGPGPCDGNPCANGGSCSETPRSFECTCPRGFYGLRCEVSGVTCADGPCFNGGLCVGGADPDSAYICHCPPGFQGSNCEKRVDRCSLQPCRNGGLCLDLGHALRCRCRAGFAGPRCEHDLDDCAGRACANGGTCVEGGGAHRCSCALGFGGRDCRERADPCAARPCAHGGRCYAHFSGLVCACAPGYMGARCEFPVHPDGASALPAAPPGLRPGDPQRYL

Changes are numbered by the printed parent chain. No constants are given. Whether binding was seen depends on the method and setting. Some entries that bind do so weakly or less than the wild type.

Assay [1] concerns the target WT115-hPro1.ECD.His (human) (UniProt Q9NYJ7). Put plainly: competition ELISA on immobilized WT115-hPro1.ECD.His; VHH titrated 0.00013-10 nM against 0.02 nM WT1156-P8R2-1H1-uIgG1, whose binding is detected.
Assay [2] has the same target. Kind of assay: competition ELISA on immobilized WT115-hPro1.ECD.His; VHH titrated 0.00013-10 nM against 0.02 nM WT1156-P3R2-1H6-uIgG1, whose binding is detected. For orientation: An ELISA detects its analyte on a solid surface through an enzyme-linked reagent.
The target is the same in assay [3]. Kind of assay: competition ELISA on immobilized WT115-hPro1.ECD.His; VHH titrated 0.00013-10 nM against 0.02 nM WT1156-P3R2-1C2-uIgG1, whose binding is detected.

B1: WT1156-P8R2-1H1 (VHH)
VHH: EVDLVESGGGLVQPGGSLRLSCAASGRTASRYSMVWFRQAPGQEREFVGGNSAHDGRSAYTDSVKGRFTFSRDNAKNTGYLQMNSLRPDDTAVYYCAADTNPPYGPPWSTPSEYEYWGHGTQVTVSS
Consider B1, for which the binding result in assay [1] and in assay [2] was “binds” each time.

B2: WT1156-P3R2-1C9 (VHH)
VHH: B1 VHH with E1Q, D3Q, P14A, A29T, T61A, N84S
In the case of B2, the binding result in assay [1] and in assay [2] was “binds” throughout.

B3: WT1156-P3R2-1C2 (VHH)
VHH: EVQLVESGGGLVQTGDSLRLSCAASGLTFSTATVGWFRQAPGKERDLIAAIPAYYSTYYASSVKGRFTISRDNAKNTVYLQMNSLKPEDTGVYYCAADDTPSPSRSPFYKHRGQGTQVTVSS
On to B3, for which, in assay [3], the binding entry is reported as “binds”.

B4: WT1156-P3R2-1H6 (VHH)
VHH: QVQLVESGGGLVQAGGSLRLSCAASGRTFRSYAMGWFRQAPGKEREFVAAISWIGGGTYYADSVKGRFTISGDNAKNTLYLQMNSLKPEDTAVYYCAASSLLRHGHMFEESDYWGQGTQVTVSS
For B4, the binding entry in assay [2] was “binds”.
